Some of the results follow. The main result of the screen is listed elsewhere. These columns were measured beside it and carry no call. The list favours compounds with an active or inconclusive main result. Potencies come from curve fits of mixed quality, noted in brackets.

This assay in a line: qHTS Assay to Find Inhibitors of Chronic Active B-Cell Receptor Signaling. The settings on record: ABC-DLBCL IkBa-CBG/CBR reporter, luminescence ratio (green luciferase fused to IkBa over red control in TMD8 lymphoma cells), 4 h. An outline of the steps: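 Cell line TMD8 (human ABC DLBCL), stably expressing tet-inducible CBG68-IkBa fusion and CBR; IMDM/0.5% FBS; cpd up to 46 uM; dox induction, 4 h, 37C/5% CO2; dual luminescence; green/red ratio; MG132 control.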
In general terms: In qHTS, concentration-response curves come from the screen itself.

Where [1] appears, read: measured here: CBR red luminescence, cell number.
The mark [2] stands for this setting: measured here: IkBa-CBG green luminescence.

Regarding `COc1ccc2sc(NC(=O)NC(=O)c3c(Cl)cccc3Cl)nc2c1`, under setting [1], the half-maximal activity concentration (AC50) – broadly, the concentration at which the activity in the assay is half-maximal – is 35.5 µM [falling, single point]. Still for that read-out and setting: the figure for `Nc1c(Nc2ccccc2)c2ccccc2oc1=O` is 18.4 µM [rising, single point]; for `CCN1C(=O)C2(C(C#N)=C(N)Oc3c2c(C)nn3-c2ccccc2)c2ccccc21` (stereo unspecified) it is 1.78 µM [falling, partial curve]. Still for that read-out and setting: the figure for `CN(C)c1nc2ncn(Cc3ccccc3)c2c(=O)[nH]1` is 3.55 µM [rising, partial curve, poor fit]. Regarding `CCc1nc2sc(C(C)=O)c(N)c2c2c1CCCC2`, the AC50 under setting [2] was 12.6 µM [rising, partial curve, poor fit]. As for `Fc1cc2[nH]cnc2cc1Cl`, the half-maximal activity concentration (AC50) under setting [1] is 5.62 µM [rising, partial curve, poor fit]. Same read-out and setting: as for `CC(=O)N1[C@H](C)C=C[C@]1(Cc1ccccc1)C(=O)NCCc1c[nH]c2ccccc12`, the figure is 10 µM [falling, partial curve]. As to `O=C(CNC(=O)c1ccc(-c2ccccc2)cc1)Nc1ccc(S(=O)(=O)Nc2ncccn2)cc1`, the AC50 under setting [1] is 22.4 µM [falling, partial curve, poor fit].

On to `CCCCOC(=O)c1ccc(NC(=O)/C=C/c2cccs2)cc1`, for which, under setting [1], the AC50 was 3.66 µM [falling, full curve]. Still for that read-out and setting: the figure for `COC(=O)[C@H](Cc1ccccc1)NC(=O)NCc1ccc(S(N)(=O)=O)cc1` is 0.103 µM [falling, full curve, poor fit]; for `Cc1cc(CNC(=O)Cc2c(F)cccc2Cl)nn1C` it is 1.16 µM [rising, full curve]; for `CCCc1cc(C(=O)OC)c(NC(=O)OCC)s1` it is 23.1 µM [rising, partial curve, poor fit]. With `C=CCN=C1N[C@@H](c2ccc(Br)cc2)C(C(=O)OC)=C(C)N1Cc1ccccc1`, the AC50 under setting [1] is 7.94 µM [falling, partial curve, poor fit]. The same measure, in the same setting: the figure for `Cc1cc(C)nc(SCC(=O)N2CCC(C(N)=O)CC2)n1` is 16.4 µM [rising, partial curve]. Same read-out and setting: as for `Cc1cc(C(=O)N/N=C2\CCCC(C)C2)n[nH]1` (stereo unspecified), the figure is 2.06 µM [falling, partial curve, poor fit]. On the same count and under the same terms, the figure for `O=c1c2cc(Br)ccc2nc(-c2cccc(Cl)c2)n1O` is 5.62 µM [falling, partial curve]; for `CC1(C)CC(=O)C2=C(C1)NC(SCC(=O)Nc1ccccc1)=C(C#N)C2c1ccco1` (stereo unspecified) it is 25.1 µM [falling, single point]; for `Cc1cc(=O)oc2c3c(cc(OCC(=O)NC(C)C)c12)OC(C)(C)CC3` it is 35.5 µM [falling, single point]. With `Cc1cccc2c1cnn2C(=O)Nc1ccc(Br)cc1F`, the concentration at half-maximal activity (AC50) under setting [1] is 35.5 µM [falling, single point]. For `COc1ccc(Nc2cc3n(c(=O)n2)CCc2cc(OC)c(OC)cc2-3)c(C)c1`, the AC50 under setting [2] was 12.6 µM [falling, partial curve]. In the case of `COc1ccc(NC(=O)c2cccs2)cc1O`, the half-maximal activity concentration (AC50) under setting [1] was 11.2 µM [falling, partial curve]. Consider `Cc1nc(-c2ccccc2)sc1-c1nc(-c2cccs2)ncc1S(=O)(=O)c1ccccc1`, for which the AC50 under setting [1] was 6.31 µM [falling, single point]. On the same count and under the same terms, as for `Cc1nn(CC(=O)NCC2CCCO2)c(C)c1[N+](=O)[O-]` (stereo unspecified), the figure is 22.4 µM [falling, single point]; as for `Cc1cccc(NC(=O)Nc2cccc3ccccc23)c1`, 0.0891 µM [falling, full curve, poor fit]; as for `CC(CN1c2ccccc2Sc2ccccc21)N(C)C` (stereo unspecified), 10 µM [falling, partial curve, poor fit]. Still for that read-out and setting: the figure for `CCc1cc2c(=O)n(Cc3ccco3)c(SCC(=O)NC3CCS(=O)(=O)C3)nc2s1` (stereo unspecified) is 35.5 µM [falling, single point]; for `COc1ccc(CC(=O)Nc2ccc(N(C)C)c3ccccc23)cc1` it is 10 µM [rising, partial curve, poor fit]; for `CC(=O)N(c1ccc(N(C(C)=O)S(=O)(=O)c2cccs2)cc1)S(=O)(=O)c1cccs1` it is 1.03 µM [falling, full curve, poor fit]. The same measure, in the same setting: as for `O=C(c1ccc(S(=O)(=O)Cc2cc(F)ccc2F)c([N+](=O)[O-])c1)N1CCCC1`, the figure is 35.5 µM [falling, single point]; as for `COc1ccc2nc(NC(=O)c3c(C)noc3C)sc2c1`, 23.1 µM [falling, partial curve]. Consider `Cc1cc(C(=O)O)ccc1N/C=C1\CCCC(C)C1=O` (stereo unspecified), for which the concentration at half-maximal activity (AC50) under setting [1] was 0.082 µM [falling, full curve, poor fit].

With `Cc1ccsc1C(=O)OCC(=O)c1cc(C)n(C)c1C`, the half-maximal activity concentration (AC50) under setting [1] was 3.66 µM [falling, single point]. With `O=C(CCS(=O)(=O)c1ccccc1)N(CCCN1CCOCC1)c1nc2ccc(F)cc2s1`, the AC50 under setting [1] is 32.6 µM [falling, partial curve, poor fit].

Regarding `COC(=O)c1ccccc1NC(=O)c1cc(C2CC2)on1`, under setting [1], the AC50 was 2.06 µM [falling, full curve, poor fit]. On the same count and under the same terms, the figure for `CC(=O)n1c(Cl)c(NC(=O)CCl)c2ccccc21` is 5.17 µM [falling, partial curve, poor fit]; for `Cc1cccc(N2CCN(C(=O)CCC(=O)N3CCOc4ccc(Cl)cc43)CC2C)c1` (stereo unspecified) it is 22.4 µM [falling, single point]. The same measure, in the same setting: the figure for `CCOC(=O)c1c(C)nn(-c2ccc(NC(=O)/C=C/C(=O)O)cc2)c1C` is 7.08 µM [rising, partial curve, poor fit]. Turning to `COc1cc(C(c2sc3nc(C)nn3c2O)N2CCN(c3ccccc3)CC2)cc(OC)c1OC` (stereo unspecified), under setting [2], the AC50 was 23.1 µM [falling, partial curve, poor fit]. For the compound `COc1ccc(/C=N/N=C2\CC3CCC2(C)C3(C)C)cc1O` (stereo unspecified), the half-maximal activity concentration (AC50) under setting [1] was 4.61 µM [falling, full curve] and the AC50 under setting [2] was 3.26 µM [rising, full curve, poor fit].

Turning to `Cn1c(SCc2cccc(C(F)(F)F)c2)nnc1-c1ccco1`, the half-maximal activity concentration (AC50) under setting [1] is 4.47 µM [rising, partial curve, poor fit].

Take `O=C(Cc1nc2ccccc2[nH]c1=O)c1ccccc1`: the AC50 under setting [1] was 1 µM [falling, full curve]. Same read-out and setting: as for `Cc1ccc2nc(N3CCN(c4ccccc4)CC3)c(C=O)c(=O)n2c1`, the figure is 20 µM [rising, partial curve, poor fit]. On the same count and under the same terms, as for `CNS(=O)(=O)c1cccc(C(=O)OCC(=O)Nc2nc(OC)cc(OC)n2)c1`, the figure is 10.3 µM [falling, single point].

As to `O=C(Nc1ccc(C(F)(F)F)cc1)c1ccccc1Br`, under setting [1], the AC50 was 20 µM [falling, partial curve, poor fit].

`CCOc1ccc(C(CC(=O)O)NC(=O)COc2ccccc2)cc1OC` (stereo unspecified): under setting [1], the half-maximal activity concentration (AC50) is 35.5 µM [falling, partial curve, poor fit]. The same measure, in the same setting: the figure for `CC(OC(=O)Cc1ccc(Br)cc1)C(=O)NC1CCCC1` (stereo unspecified) is 0.259 µM [falling, full curve]. On the same count and under the same terms, the figure for `Cc1cccc(-c2nnc(NC(=O)c3cccs3)s2)c1` is 1.3 µM [falling, full curve]; for `C/C1=C\CCC2C(/C=C(\C)CC1)OC(=O)C2CN1CCCCC1` (stereo unspecified) it is 3.55 µM [falling, full curve]; for `Cc1ccc(CNS(=O)(=O)CCNC(=O)c2ccccc2)cc1` it is 29.1 µM [rising, partial curve, poor fit]. Still for that read-out and setting: the figure for `CNc1nc(SCC(=O)Nc2ccccc2)nc(N2CCOCC2)n1` is 0.631 µM [rising, full curve, poor fit]; for `CCN(CC)CCOC(=O)c1ccc(NC(=O)c2cn(-c3ccccc3)nc2-c2cccs2)cc1` it is 22.4 µM [falling, single point].

For the compound `Cc1ccc(NC(=O)c2cc3ccccc3oc2=N)cc1`, the AC50 under setting [1] was 11.2 µM [falling, partial curve, poor fit]. Take `COc1cc(-c2nc3c4ccccc4nc(=S)n3[nH]2)cc(OC)c1OC`: the concentration at half-maximal activity (AC50) under setting [1] is 2 µM [rising, partial curve, poor fit]. The same measure, in the same setting: the figure for `CCC(=O)Oc1ccc(C(=O)Nc2cccc(C(=O)NCC(C)C)c2)cc1` is 1.78 µM [falling, partial curve, poor fit]; for `COc1ccccc1OCCNc1ccc(S(=O)(=O)N2CCCC2)cn1` it is 13 µM [falling, partial curve, poor fit]; for `CCOC(=O)c1cc(-c2ccc(OC)cc2)n[nH]1` it is 35.5 µM [falling, single point]. Still for that read-out and setting: as for `CC(/C=C/c1ccccc1)=N/NC(=O)Cn1nnc(N)n1`, the figure is 8.91 µM [rising, partial curve]. `CCC(=O)NC(Nc1sc2c(c1C(=O)OC)CCC2)C(Cl)(Cl)Cl` (stereo unspecified): the concentration at half-maximal activity (AC50) runs as follows: under setting [1], 25.9 µM [falling, single point]; under setting [2], 10.3 µM [rising, partial curve, poor fit].

For the compound `Cc1ccc(C)c(S(=O)(=O)Nc2ccc(C(=O)N3CC(C)OC(C)C3)cc2)c1` (stereo unspecified), under setting [1], the half-maximal activity concentration (AC50) is 0.184 µM [rising, full curve, poor fit]. Regarding `Cc1ccc(-c2nc(CS(=O)CC(=O)N3CCN(c4ccc(Cl)cc4)CC3)c(C)o2)cc1` (stereo unspecified), the AC50 under setting [1] is 11.2 µM [falling, partial curve, poor fit].

As to `CCOC(=O)c1ccc(NC(=S)NC(=O)c2cncc(Br)c2)cc1`, the half-maximal activity concentration (AC50) under setting [1] is 35.5 µM [rising, single point].

As to `O=C(N/N=C\c1cn[nH]c1-c1ccccc1)c1cccnc1`, the AC50 under setting [1] was 29.1 µM [falling, single point]. On the same count and under the same terms, the figure for `COc1ccc(-c2cn3c(C)c(C(=O)N4CCN(c5ccccc5F)CC4)sc3n2)cc1` is 17.8 µM [falling, partial curve, poor fit]. `O=C(c1ccc(Cl)c(S(=O)(=O)NCc2ccco2)c1)N1CCN(c2ccc(F)cc2)CC1`: the half-maximal activity concentration (AC50) under setting [1] is 0.517 µM [falling, full curve, poor fit].

(Values after PubChem BioAssay AID493014 (National Center for Advancing Translational Sciences (NCATS), 2011).)
